Measurements taken from paper PMC12455474.
Construct, isoform or probe ends are uncertain for at least one entry.

Experiments:
[1] = test system: human alpha-thrombin (human); assay: binding assay; settings: Carriers (200 pM total) incubated with protein at 37 °C for 2 h; nanopore measurement in 100 mM KCl, 10 mM Tris-EDTA pH 8.0, -300 mV; commercial protein; folded or branched DNA
PDGF-BB (human) = PDGF-BB (human) (UniProt P01127); assay: binding assay; settings: Carriers (200 pM total) incubated with protein at 37 °C for 2 h; nanopore measurement in 100 mM KCl, 10 mM Tris-EDTA pH 8.0, -300 mV; recombinant protein; folded or branched DNA

Row | Sequence | Kd [1] [nM] | Kd (PDGF-BB (human)) [nM]
1 | AGTCCGTGGTAGGGCAGGTTGGGGTGACT [HD22 (29-mer)] | 3.5 | –
2 | CACAGGCTACGGCACGTAGAGCATCACCATGATCCTGTG [PDGF 39-mer aptamer] | – | 0.1
3 | GGTTGGTGTGGTTGG [HD1 (TBA, 15-mer)] | 20.2 | –
